No constants are given. Whether binding was seen depends on the method and setting. Binding seen in cells or lysates may run through a third protein. Some entries that bind do so weakly or less than the wild type. For part of these data: Sequences can lack the tags named with a protein.

Sequences of proteins named here, by UniProt entry; tags and fusion partners are left off. A change or cut given only in a name is not applied to a line headed by its entry. Residues count along the entry.
UniProt Q63604, residues 32-821: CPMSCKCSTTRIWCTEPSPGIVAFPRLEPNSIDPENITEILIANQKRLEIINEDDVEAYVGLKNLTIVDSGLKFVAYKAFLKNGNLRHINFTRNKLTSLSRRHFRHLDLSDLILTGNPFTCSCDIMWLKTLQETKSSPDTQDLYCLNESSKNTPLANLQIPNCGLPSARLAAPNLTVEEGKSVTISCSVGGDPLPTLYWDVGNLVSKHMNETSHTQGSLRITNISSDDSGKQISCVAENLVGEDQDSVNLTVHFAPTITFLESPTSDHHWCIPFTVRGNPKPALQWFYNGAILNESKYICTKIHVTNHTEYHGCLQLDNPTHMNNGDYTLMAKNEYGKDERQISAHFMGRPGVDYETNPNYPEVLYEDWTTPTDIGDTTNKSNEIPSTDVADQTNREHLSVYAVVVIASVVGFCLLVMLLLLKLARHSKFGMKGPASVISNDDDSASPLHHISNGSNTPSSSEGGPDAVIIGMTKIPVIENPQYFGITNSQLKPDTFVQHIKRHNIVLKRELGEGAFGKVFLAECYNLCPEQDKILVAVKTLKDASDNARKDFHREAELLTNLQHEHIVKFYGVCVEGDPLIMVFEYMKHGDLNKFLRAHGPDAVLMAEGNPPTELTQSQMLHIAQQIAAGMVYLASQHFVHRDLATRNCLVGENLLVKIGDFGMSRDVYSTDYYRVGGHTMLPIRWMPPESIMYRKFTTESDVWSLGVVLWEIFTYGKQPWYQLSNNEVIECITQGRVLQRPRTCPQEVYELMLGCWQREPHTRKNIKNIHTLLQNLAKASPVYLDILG
UniProt Q5JCS6: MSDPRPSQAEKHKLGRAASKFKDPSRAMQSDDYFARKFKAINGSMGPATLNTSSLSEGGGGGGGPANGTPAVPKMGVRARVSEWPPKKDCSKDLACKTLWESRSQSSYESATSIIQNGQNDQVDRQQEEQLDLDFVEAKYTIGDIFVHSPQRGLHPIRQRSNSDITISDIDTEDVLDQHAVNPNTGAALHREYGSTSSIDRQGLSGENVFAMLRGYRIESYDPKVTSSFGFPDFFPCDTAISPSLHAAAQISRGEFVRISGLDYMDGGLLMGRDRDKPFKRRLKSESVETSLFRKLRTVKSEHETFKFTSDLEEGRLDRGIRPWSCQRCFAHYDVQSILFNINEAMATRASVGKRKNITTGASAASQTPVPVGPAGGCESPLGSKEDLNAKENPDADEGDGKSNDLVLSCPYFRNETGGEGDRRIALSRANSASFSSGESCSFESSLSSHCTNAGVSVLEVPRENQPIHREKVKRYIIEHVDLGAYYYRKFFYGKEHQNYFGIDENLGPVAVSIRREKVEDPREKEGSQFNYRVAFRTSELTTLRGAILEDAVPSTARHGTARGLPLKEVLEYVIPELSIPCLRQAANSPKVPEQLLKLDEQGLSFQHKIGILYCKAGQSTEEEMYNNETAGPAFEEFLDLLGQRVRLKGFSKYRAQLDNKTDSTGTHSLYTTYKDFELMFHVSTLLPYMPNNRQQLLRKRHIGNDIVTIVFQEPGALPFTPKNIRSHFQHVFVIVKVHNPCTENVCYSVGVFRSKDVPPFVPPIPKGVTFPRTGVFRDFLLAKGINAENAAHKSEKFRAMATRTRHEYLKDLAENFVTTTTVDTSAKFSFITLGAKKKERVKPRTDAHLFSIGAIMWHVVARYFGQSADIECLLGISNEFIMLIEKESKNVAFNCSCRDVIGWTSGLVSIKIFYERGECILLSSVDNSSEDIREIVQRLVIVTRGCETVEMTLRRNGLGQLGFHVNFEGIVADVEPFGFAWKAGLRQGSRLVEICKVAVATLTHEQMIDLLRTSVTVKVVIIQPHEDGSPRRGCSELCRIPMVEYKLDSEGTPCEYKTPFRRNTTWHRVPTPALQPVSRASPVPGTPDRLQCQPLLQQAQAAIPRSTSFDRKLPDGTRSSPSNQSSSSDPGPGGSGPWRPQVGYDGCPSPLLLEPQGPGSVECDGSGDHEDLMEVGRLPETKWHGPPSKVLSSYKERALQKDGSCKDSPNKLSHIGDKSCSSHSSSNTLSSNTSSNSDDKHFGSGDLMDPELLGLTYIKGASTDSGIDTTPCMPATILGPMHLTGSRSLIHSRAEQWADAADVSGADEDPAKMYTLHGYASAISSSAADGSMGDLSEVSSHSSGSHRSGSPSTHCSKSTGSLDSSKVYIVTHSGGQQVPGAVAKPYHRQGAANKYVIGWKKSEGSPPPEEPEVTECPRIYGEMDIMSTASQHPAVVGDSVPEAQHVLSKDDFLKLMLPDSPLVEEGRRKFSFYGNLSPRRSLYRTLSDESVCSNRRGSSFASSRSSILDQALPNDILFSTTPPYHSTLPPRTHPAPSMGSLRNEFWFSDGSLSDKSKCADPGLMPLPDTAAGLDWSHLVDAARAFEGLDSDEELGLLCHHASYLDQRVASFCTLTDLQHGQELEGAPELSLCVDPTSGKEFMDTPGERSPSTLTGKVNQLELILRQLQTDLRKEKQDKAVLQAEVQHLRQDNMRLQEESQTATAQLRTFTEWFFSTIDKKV

Binding data for 3 substances are collected here from article doi:10.1101/556266.

The target of assay [1] is TrkB (endogenous, rat cerebellum) (rat (endogenous in cerebellum)) (UniProt Q63604). Description: co-IP.
A further assay addresses T1, GFP-Snapin (UniProt O95295).
T1 sequence: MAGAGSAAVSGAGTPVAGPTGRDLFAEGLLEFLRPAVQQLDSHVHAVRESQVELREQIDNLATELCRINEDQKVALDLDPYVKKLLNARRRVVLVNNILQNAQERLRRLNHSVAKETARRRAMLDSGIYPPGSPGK
The assay is described as follows: co-IP.

Turning to “SIPA1L2 (endogenous, rat cerebellum) (from UniProt Q5JCS6 1-1722)”, in assay [1], the binding entry is reported as “binds”.

On to “fl-SIPA1L2-mCherry (from UniProt Q5JCS6 1-1722)”, for which the binding result with GFP-Snapin is reported as “binds”.

“SIPA1L2-F638A-L641A-mCherry (from UniProt Q5JCS6 1-1722)”: the binding result in the assay with GFP-Snapin is reported as “binds”.
